Data published in the supplement of paper PMC8728848.
The other results are listed elsewhere or left out.

How the values were obtained:
Test in all cases: glycan array binding signal (z-score within array); higher = stronger binding
Conditions in all cases: glycan notation: IUPAC condensed, linker removed
GlcNAc(b1-6)GalNAc = target: GlcNAc(b1-6)GalNAc
Outline: (§1)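 The Consortium for Functional Glycomics database supplied 3228 glycan arrays, of which those lacking an available protein sequence were dropped. The binding signal, a within-array Z-score, was averaged across arrays of the same protein sequence and across linkers. Negative scores can be read as non-binding.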

GlcNAc3Prop(b1-4)GlcNAc = target: GlcNAc3Prop(b1-4)GlcNAc
Outline: as §1

[1] = target: GlcNAc6S(b1-3)Gal(b1-4)GlcNAc
Outline: as §1

Kdn(a2-3)Gal(b1-3)GalNAc = target: Kdn(a2-3)Gal(b1-3)GalNAc
Outline: as §1

Kdn(a2-3)Gal(b1-3)GlcNAc = target: Kdn(a2-3)Gal(b1-3)GlcNAc
Outline: as §1

Kdn(a2-3)Gal(b1-4)Glc = target: Kdn(a2-3)Gal(b1-4)Glc
Outline: as §1

Kdn(a2-3)Gal(b1-4)GlcNAc = target: Kdn(a2-3)Gal(b1-4)GlcNAc
Outline: as §1

[2] = target: Kdn(a2-3)Gal(b1-4)[Fuc(a1-3)]GlcNAc
Outline: as §1

Kdn(a2-6)Gal(b1-4)GlcNAc = target: Kdn(a2-6)Gal(b1-4)GlcNAc
Outline: as §1

[3] = target: Man(a1-2)Man(a1-2)Man(a1-3)Man
Outline: as §1

[4] = target: Man(a1-2)Man(a1-2)Man(a1-6)[Man(a1-3)]Man
Outline: as §1

Man(a1-2)Man(a1-3)Man = target: Man(a1-2)Man(a1-3)Man
Outline: as §1

[5] = target: Man(a1-2)Man(a1-3)[Man(a1-2)Man(a1-6)]Man
Outline: as §1

[6] = target: Man(a1-2)Man(a1-3)[Man(a1-2)Man(a1-6)]Man(a1-6)[Man(a1-2)Man(a1-2)Man(a1-3)]Man
Outline: as §1

[7] = target: Man(a1-2)Man(a1-3)[Man(a1-2)Man(a1-6)]Man(a1-6)[Man(a1-2)Man(a1-2)Man(a1-3)]Man(b1-4)GlcNAc(b1-4)GlcNAc
Outline: as §1

[8] = target: Man(a1-2)Man(a1-3)[Man(a1-6)]Man(a1-6)[Man(a1-2)Man(a1-3)]Man(b1-4)GlcNAc(b1-4)GlcNAc
Outline: as §1

[9] = target: Man(a1-2)Man(a1-6)[Man(a1-3)]Man(a1-6)[Man(a1-2)Man(a1-2)Man(a1-3)]Man
Outline: as §1

[10] = target: Man(a1-2)Man(a1-6)[Man(a1-3)]Man(a1-6)[Man(a1-2)Man(a1-2)Man(a1-3)]Man(b1-4)GlcNAc(b1-4)GlcNAc
Outline: as §1

Man(a1-3)[Man(a1-6)]Man = target: Man(a1-3)[Man(a1-6)]Man
Outline: as §1

[11] = target: Man(a1-3)[Man(a1-6)]Man(a1-6)[Man(a1-2)Man(a1-3)]Man(b1-4)GlcNAc(b1-4)GlcNAc
Outline: as §1

[12] = target: Man(a1-3)[Man(a1-6)]Man(a1-6)[Man(a1-3)]Man
Outline: as §1

[13] = target: Man(a1-3)[Man(a1-6)]Man(a1-6)[Man(a1-3)]Man(b1-4)GlcNAc(b1-4)GlcNAc
Outline: as §1

[14] = target: Man(a1-3)[Man(a1-6)]Man(b1-4)GlcNAc(b1-4)GlcNAc
Outline: as §1

Man(a1-6)Man = target: Man(a1-6)Man
Outline: as §1

Man(b1-4)GlcNAc = target: Man(b1-4)GlcNAc
Outline: as §1

Neu5Ac(a2-3)Gal = target: Neu5Ac(a2-3)Gal
Outline: as §1

[15] = target: Neu5Ac(a2-3)Gal(b1-3)GalNAc
Outline: as §1

[16] = target: Neu5Ac(a2-3)Gal(b1-3)GalNAc(b1-3)Gal(a1-4)Gal(b1-4)Glc
Outline: as §1

[17] = target: Neu5Ac(a2-3)Gal(b1-3)GalNAc(b1-4)[Neu5Ac(a2-3)]Gal(b1-4)Glc
Outline: as §1

[18] = target: Neu5Ac(a2-3)Gal(b1-3)GalNAc(b1-4)[Neu5Ac(a2-8)Neu5Ac(a2-3)]Gal(b1-4)Glc
Outline: as §1

[19] = target: Neu5Ac(a2-3)Gal(b1-3)GalNAc6S
Outline: as §1

[20] = target: Neu5Ac(a2-3)Gal(b1-3)GlcNAc
Outline: as §1

[21] = target: Neu5Ac(a2-3)Gal(b1-3)GlcNAc(b1-3)Gal(b1-3)GlcNAc
Outline: as §1

[22] = target: Neu5Ac(a2-3)Gal(b1-3)GlcNAc(b1-3)Gal(b1-4)GlcNAc
Outline: as §1

[23] = target: Neu5Ac(a2-3)Gal(b1-3)GlcNAc(b1-3)GalNAc
Outline: as §1

[24] = target: Neu5Ac(a2-3)Gal(b1-3)GlcNAc6S
Outline: as §1

[25] = target: Neu5Ac(a2-3)Gal(b1-3)[Fuc(a1-4)]GlcNAc
Outline: as §1

[26] = target: Neu5Ac(a2-3)Gal(b1-3)[Fuc(a1-4)]GlcNAc(b1-3)Gal(b1-3)[Fuc(a1-4)]GlcNAc
Outline: as §1

[27] = target: Neu5Ac(a2-3)Gal(b1-3)[Fuc(a1-4)]GlcNAc(b1-3)Gal(b1-4)[Fuc(a1-3)]GlcNAc
Outline: as §1

[28] = target: Neu5Ac(a2-3)Gal(b1-3)[Neu5Ac(a2-3)Gal(b1-4)]GlcNAc
Outline: as §1

[29] = target: Neu5Ac(a2-3)Gal(b1-3)[Neu5Ac(a2-6)]GalNAc
Outline: as §1

Neu5Ac(a2-3)Gal(b1-4)Glc = target: Neu5Ac(a2-3)Gal(b1-4)Glc
Outline: as §1

[30] = target: Neu5Ac(a2-3)Gal(b1-4)GlcNAc
Outline: as §1

[31] = target: Neu5Ac(a2-3)Gal(b1-4)GlcNAc(b1-2)Man(a1-3)[GlcNAc(b1-2)Man(b1-4)GlcNAc(b1-2)Man(a1-6)]Man(b1-4)GlcNAc(b1-4)GlcNAc
Outline: as §1

[32] = target: Neu5Ac(a2-3)Gal(b1-4)GlcNAc(b1-2)Man(a1-3)[Neu5Ac(a2-6)Gal(b1-4)GlcNAc(b1-2)Man(a1-6)]Man(b1-4)GlcNAc(b1-4)GlcNAc
Outline: as §1

B1: Flo11 (Saccharomyces cerevisiae), P08640 (protein)
chain: MQRPFLLAYLVLSLLFNSALGFPTALVPRGSSEGTSCNSIVNGCPNLDFNWHMDQQNIMQYTLDVTSVSWVQDNTYQITIHVKGKENIDLKYLWSLKIIGVTGPKGTVQLYGYNENTYLIDNPTDFTATFEVYATQDVNSCQVWMPNFQIQFEYLQGSAAQYASSWQWGTTSFDLSTGCNNYDNQGHSQTDFPGFYWNIDCDNNCGGTKSSTTTSSTSESSTTTSSTSESSTTTSSTSESSTTTSSTSESSTSSSTTAPATPTTTSCTKEKPTPPTTTSCTKEKPTPPHHDTTPCTKKKTTTSKTCTKKTTTPVPTPSSSTTESSSAPVPTPSSSTTESSSAPVTSSTTESSSAPVPTPSSSTTESSSAPVTSSTTESSSAPVTSSTTESSSAPVPTPSSSTTESSSAPVTSSTTESSSAPVTSSTTESSSAPVTSSTTESSSAPVTSSTTESSSAPVPTPSSSTTESSSAPVTSSTTESSSAPVPTPSSSTTESSSAPVTSSTTESSSAPVPTPSSSTTESSSAPAPTPSSSTTESSSAPVTSSTTESSSAPVPTPSSSTTESSSTPVTSSTTESSSAPVPTPSSSTTESSSAPVPTPSSSTTESSSAPAPTPSSSTTESSSAPVTSSTTESSSAPVPTPSSSTTESSSAPVPTPSSSTTESSSAPVPTPSSSTTESSSAPVTSSTTESSSAPVTSSTTESSSAPVPTPSSSTTESSSAPVPTPSSSTTESSSAPVPTPSSSTTESSSAPVTSSTTESSSAPVPTPSSSTTESSSAPVPTPSSSTTESSSAPVPTPSSSTTESSVAPVPTPSSSSNITSSAPSSTPFSSSTESSSVPVPTPSSSTTESSSAPVSSSTTESSVAPVPTPSSSSNITSSAPSSIPFSSTTESFSTGTTVTPSSSKYPGSQTETSVSSTTETTIVPTKTTTSVTTPSTTTITTTVCSTGTNSAGETTSGCSPKTVTTTVPTTTTTSVTTSSTTTITTTVCSTGTNSAGETTSGCSPKTITTTVPCSTSPSETASESTTTSPTTPVTTVVSTTVVTTEYSTSTKPGGEITTTFVTKNIPTTYLTTIAPTPSVTTVTNFTPTTITTTVCSTGTNSAGETTSGCSPKTVTTTVPCSTGTGEYTTEATTLVTTAVTTTVVTTESSTGTNSAGKTTTGYTTKSVPTTYVTTLAPSAPVTPATNAVPTTITTTECSAATNAAGETTSVCSAKTIVSSASAGENTAPSATTPVTTAIPTTVITTESSVGTNSAGETTTGYTTKSIPTTYITTLIPGSNGAKNYETVATATNPISIKTTSQLATTASASSVAPVVTSPSLTGPLQSASGSAVATYSVPSISSTYQGAANIKVLGNFMWLLLALPVVF
glycan array binding signal (z-score) (GlcNAc(b1-6)GalNAc): -0.005 | glycan array binding signal (z-score) (GlcNAc3Prop(b1-4)GlcNAc): -0.021 | glycan array binding signal (z-score) [1]: 0.614 | glycan array binding signal (z-score) (Kdn(a2-3)Gal(b1-3)GalNAc): -0.649 | glycan array binding signal (z-score) (Kdn(a2-3)Gal(b1-3)GlcNAc): -0.123 | glycan array binding signal (z-score) (Kdn(a2-3)Gal(b1-4)Glc): -0.682 | glycan array binding signal (z-score) (Kdn(a2-3)Gal(b1-4)GlcNAc): 0.495 | glycan array binding signal (z-score) [2]: -0.53 | glycan array binding signal (z-score) (Kdn(a2-6)Gal(b1-4)GlcNAc): 0.117 | glycan array binding signal (z-score) [3]: 7.09 | glycan array binding signal (z-score) [4]: -0.722 | glycan array binding signal (z-score) (Man(a1-2)Man(a1-3)Man): -0.508 | glycan array binding signal (z-score) [5]: -0.669 | glycan array binding signal (z-score) [6]: 0.07 | glycan array binding signal (z-score) [7]: -0.63 | glycan array binding signal (z-score) [8]: 0.278 | glycan array binding signal (z-score) [9]: -1.06 | glycan array binding signal (z-score) [10]: -1.08 | glycan array binding signal (z-score) (Man(a1-3)[Man(a1-6)]Man): 0.186 | glycan array binding signal (z-score) [11]: 1.5 | glycan array binding signal (z-score) [12]: -0.88 | glycan array binding signal (z-score) [13]: -0.897 | glycan array binding signal (z-score) [14]: -0.615 | glycan array binding signal (z-score) (Man(a1-6)Man): -0.924 | glycan array binding signal (z-score) (Man(b1-4)GlcNAc): -0.041 | glycan array binding signal (z-score) (Neu5Ac(a2-3)Gal): -0.476 | glycan array binding signal (z-score) [15]: -0.731 | glycan array binding signal (z-score) [16]: -0.861 | glycan array binding signal (z-score) [17]: 0.155 | glycan array binding signal (z-score) [18]: 0.779 | glycan array binding signal (z-score) [19]: -0.833 | glycan array binding signal (z-score) [20]: 0.108 | glycan array binding signal (z-score) [21]: -0.416 | glycan array binding signal (z-score) [22]: -0.654 | glycan array binding signal (z-score) [23]: -0.357 | glycan array binding signal (z-score) [24]: -0.836 | glycan array binding signal (z-score) [25]: -0.342 | glycan array binding signal (z-score) [26]: -0.768 | glycan array binding signal (z-score) [27]: -0.273 | glycan array binding signal (z-score) [28]: -0.725 | glycan array binding signal (z-score) [29]: 0.464 | glycan array binding signal (z-score) (Neu5Ac(a2-3)Gal(b1-4)Glc): -0.539 | glycan array binding signal (z-score) [30]: -0.28 | glycan array binding signal (z-score) [31]: 0.381 | glycan array binding signal (z-score) [32]: -0.204
